{"source": "paper PMC3264566", "about": "“Structure-Function Studies of DNA Binding Domain of Response Regulator KdpE Reveals Equal Affinity Interactions at DNA Half-Sites”", "key": {"[1]": {"target": "DNA binding domain of E. coli response regulator KdpE (KdpEDBD) (E. coli) (UniProt P21866)", "assay": "SEC; analytical size-exclusion chromatography, 10/300 GL Superdex 200, 10 mM HEPES pH 7.5, 150 mM KCl; elution compared with protein standards of known mass; both purified"}, "[2]": {"target": "DNA binding domain of E. coli response regulator KdpE (KdpEDBD) (E. coli) (UniProt P21866)", "assay": "AUC; sedimentation velocity, 50,000 rpm, 20°C, 50 mM HEPES pH 7.4, 150 mM KCl, 1 mM EDTA; KdpEDBD alone at 21, 42 and 84 µM; both purified"}}, "note": "No constants are given. Whether binding was seen depends on the method and setting."}
{"binder": "DNA binding domain of E. coli response regulator KdpE (KdpEDBD) (domain or fragment, UniProt P21866 124-225) APDPLVKFSDVTVDLAARVIHRGEEEVHLTPIEFRLLAVLLNNAGKVLTQRQLLNQVWGPNAVEHSHYLRIYMGHLRQKLEQDPARPRHFITETGIGYRFML", "values": [{"measurement": "binding", "setting": "[1]", "value": "no binding"}, {"measurement": "binding", "setting": "[2]", "value": "no binding (tested: 84 µM)"}]}
